Results are given in words; binding and its absence hold for the method and conditions named. Binding seen in cells or lysates may run through a third protein. Some binding calls cover weakened binding; strength is not graded here.
Molecular target: T1, contactin-associated protein (Caspr) (mouse (endogenous in lumbosacral spinal cord)) (UniProt O54991)
T1 sequence: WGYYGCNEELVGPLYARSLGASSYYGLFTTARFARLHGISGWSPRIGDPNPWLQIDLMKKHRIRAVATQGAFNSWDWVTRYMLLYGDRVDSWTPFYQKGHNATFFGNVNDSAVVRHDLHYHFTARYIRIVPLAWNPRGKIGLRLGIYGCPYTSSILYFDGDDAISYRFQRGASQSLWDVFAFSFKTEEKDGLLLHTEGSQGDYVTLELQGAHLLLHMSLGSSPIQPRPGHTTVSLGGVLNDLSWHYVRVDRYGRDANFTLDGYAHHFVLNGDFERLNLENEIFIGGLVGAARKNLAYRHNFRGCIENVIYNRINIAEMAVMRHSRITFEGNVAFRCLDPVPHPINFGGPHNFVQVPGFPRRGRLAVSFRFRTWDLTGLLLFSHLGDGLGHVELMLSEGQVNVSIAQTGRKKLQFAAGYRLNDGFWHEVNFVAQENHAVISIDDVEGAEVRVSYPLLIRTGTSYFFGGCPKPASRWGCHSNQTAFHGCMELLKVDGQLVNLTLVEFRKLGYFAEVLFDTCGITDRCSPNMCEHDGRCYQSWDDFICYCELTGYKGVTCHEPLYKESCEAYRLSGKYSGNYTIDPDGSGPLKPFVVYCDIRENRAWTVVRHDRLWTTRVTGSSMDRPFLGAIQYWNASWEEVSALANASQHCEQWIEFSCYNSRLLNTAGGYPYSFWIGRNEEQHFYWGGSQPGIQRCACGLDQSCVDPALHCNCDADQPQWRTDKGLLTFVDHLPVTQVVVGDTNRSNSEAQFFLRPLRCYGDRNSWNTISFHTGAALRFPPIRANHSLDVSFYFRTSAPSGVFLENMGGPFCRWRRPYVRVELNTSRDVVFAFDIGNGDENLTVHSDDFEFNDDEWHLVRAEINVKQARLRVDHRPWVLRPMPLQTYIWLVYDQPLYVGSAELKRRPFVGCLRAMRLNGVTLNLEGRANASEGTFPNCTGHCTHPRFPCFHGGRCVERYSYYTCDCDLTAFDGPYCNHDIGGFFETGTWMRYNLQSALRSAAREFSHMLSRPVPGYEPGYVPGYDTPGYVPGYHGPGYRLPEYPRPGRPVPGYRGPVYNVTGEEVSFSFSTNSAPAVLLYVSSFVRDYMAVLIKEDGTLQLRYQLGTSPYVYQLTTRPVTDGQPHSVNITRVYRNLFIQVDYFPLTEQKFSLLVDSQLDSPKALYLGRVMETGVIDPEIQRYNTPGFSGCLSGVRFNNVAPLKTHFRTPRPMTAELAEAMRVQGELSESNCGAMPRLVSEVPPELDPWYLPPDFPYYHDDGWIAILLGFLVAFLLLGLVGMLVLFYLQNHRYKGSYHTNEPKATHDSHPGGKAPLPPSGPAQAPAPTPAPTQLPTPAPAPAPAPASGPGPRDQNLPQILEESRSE
Test: co-IP

cellular prion protein, PrP^C (from UniProt P04925 23-230)
binding: binds

Source: publication PMC5567129
